Data: the supplement of paper PMC7666118
The list shows a part of the results.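 How the source made its calls: active = dose-dependent thermal stabilisation significant by F-test of dose-response against flat model at 10% FDR; inactive = not significant.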

Protein sequences, listed by entry. Tags and fused reporters are not part of them. Lines headed by an entry give the natural chain unless they say otherwise; changes in a name come on top.
UniProt P09326: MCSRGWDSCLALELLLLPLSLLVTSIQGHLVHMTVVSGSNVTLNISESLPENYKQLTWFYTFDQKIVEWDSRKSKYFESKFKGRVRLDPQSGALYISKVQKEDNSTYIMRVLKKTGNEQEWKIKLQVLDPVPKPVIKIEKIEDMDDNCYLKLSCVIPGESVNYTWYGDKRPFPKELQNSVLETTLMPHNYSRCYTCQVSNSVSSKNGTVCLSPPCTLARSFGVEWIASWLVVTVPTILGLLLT
UniProt Q9BWS9: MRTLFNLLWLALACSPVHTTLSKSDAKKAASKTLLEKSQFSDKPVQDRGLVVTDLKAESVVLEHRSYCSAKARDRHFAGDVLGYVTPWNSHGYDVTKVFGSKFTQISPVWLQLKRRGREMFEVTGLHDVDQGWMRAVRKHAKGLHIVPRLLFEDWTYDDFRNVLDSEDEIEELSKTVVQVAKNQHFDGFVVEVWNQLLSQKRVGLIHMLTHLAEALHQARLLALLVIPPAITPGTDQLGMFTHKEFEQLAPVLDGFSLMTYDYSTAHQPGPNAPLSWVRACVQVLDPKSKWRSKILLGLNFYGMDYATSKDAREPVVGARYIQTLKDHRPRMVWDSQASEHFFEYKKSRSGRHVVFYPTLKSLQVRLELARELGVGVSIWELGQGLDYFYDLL
UniProt Q8WWK9: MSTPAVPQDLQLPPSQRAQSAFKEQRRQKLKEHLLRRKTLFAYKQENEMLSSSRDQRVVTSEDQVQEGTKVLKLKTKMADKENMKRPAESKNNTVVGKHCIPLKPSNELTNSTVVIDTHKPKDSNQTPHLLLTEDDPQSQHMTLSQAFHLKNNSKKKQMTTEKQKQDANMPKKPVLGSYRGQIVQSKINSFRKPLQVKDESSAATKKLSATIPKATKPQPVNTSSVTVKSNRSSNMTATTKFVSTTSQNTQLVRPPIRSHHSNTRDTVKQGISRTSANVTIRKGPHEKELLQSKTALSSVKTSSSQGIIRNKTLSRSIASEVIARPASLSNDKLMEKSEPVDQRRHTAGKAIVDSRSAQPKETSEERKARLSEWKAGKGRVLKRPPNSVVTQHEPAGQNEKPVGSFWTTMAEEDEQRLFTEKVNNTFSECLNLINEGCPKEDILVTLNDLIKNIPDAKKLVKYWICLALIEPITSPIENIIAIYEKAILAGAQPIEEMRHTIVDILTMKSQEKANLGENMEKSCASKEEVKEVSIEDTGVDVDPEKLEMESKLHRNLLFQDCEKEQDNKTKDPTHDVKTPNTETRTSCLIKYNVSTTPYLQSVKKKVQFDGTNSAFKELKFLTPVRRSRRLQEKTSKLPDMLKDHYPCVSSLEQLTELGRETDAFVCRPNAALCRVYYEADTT
UniProt Q96JB5: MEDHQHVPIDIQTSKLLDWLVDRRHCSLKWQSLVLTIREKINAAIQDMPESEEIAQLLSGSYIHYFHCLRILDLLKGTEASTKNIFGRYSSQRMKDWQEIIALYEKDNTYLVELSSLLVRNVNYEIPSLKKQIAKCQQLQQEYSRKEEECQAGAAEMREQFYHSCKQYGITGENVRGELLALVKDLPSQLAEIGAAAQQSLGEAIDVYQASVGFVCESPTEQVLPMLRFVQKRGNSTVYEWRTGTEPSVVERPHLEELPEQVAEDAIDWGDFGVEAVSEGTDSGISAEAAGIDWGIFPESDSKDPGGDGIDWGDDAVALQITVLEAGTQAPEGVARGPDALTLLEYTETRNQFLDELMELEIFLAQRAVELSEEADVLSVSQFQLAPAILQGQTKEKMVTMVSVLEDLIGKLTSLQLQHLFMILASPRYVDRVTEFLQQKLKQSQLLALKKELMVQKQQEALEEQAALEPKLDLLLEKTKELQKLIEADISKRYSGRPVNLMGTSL
UniProt P24386: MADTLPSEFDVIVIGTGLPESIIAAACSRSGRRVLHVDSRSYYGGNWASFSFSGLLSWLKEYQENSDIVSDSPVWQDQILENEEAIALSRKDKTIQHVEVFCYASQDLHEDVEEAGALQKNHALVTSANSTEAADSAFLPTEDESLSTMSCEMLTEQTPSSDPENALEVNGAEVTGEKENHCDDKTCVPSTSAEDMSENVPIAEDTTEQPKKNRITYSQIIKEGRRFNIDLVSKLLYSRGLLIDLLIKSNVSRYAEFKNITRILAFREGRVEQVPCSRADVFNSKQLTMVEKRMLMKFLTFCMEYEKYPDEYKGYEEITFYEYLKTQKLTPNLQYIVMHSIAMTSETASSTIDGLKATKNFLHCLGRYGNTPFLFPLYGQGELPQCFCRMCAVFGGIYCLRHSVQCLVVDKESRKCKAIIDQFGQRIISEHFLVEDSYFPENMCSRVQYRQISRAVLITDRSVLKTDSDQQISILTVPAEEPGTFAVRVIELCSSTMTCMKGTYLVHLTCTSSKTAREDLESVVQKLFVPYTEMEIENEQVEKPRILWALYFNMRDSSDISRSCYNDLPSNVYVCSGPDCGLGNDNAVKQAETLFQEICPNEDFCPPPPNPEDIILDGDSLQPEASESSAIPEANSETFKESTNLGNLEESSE
UniProt Q9Y696: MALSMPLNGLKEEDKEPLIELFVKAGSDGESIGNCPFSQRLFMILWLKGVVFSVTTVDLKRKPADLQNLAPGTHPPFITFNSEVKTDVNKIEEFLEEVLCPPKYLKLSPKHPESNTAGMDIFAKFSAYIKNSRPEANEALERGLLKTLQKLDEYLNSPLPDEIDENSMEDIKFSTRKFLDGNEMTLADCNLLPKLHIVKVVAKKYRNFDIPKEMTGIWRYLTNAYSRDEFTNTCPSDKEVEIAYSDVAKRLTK
UniProt O96017, whole entry: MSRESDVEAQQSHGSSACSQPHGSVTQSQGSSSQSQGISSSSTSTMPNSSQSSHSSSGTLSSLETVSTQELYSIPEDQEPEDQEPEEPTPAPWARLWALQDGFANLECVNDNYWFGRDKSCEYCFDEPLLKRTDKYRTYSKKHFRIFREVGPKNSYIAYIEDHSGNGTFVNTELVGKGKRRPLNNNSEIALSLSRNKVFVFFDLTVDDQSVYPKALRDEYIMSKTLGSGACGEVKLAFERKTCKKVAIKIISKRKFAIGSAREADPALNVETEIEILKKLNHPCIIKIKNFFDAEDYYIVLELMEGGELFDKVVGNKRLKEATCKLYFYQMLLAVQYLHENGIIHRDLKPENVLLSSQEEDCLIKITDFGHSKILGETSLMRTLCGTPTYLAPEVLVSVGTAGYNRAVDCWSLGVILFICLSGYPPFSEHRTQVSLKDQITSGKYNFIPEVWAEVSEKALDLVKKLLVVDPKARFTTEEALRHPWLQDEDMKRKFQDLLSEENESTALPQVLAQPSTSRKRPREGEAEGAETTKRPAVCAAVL
UniProt Q03701: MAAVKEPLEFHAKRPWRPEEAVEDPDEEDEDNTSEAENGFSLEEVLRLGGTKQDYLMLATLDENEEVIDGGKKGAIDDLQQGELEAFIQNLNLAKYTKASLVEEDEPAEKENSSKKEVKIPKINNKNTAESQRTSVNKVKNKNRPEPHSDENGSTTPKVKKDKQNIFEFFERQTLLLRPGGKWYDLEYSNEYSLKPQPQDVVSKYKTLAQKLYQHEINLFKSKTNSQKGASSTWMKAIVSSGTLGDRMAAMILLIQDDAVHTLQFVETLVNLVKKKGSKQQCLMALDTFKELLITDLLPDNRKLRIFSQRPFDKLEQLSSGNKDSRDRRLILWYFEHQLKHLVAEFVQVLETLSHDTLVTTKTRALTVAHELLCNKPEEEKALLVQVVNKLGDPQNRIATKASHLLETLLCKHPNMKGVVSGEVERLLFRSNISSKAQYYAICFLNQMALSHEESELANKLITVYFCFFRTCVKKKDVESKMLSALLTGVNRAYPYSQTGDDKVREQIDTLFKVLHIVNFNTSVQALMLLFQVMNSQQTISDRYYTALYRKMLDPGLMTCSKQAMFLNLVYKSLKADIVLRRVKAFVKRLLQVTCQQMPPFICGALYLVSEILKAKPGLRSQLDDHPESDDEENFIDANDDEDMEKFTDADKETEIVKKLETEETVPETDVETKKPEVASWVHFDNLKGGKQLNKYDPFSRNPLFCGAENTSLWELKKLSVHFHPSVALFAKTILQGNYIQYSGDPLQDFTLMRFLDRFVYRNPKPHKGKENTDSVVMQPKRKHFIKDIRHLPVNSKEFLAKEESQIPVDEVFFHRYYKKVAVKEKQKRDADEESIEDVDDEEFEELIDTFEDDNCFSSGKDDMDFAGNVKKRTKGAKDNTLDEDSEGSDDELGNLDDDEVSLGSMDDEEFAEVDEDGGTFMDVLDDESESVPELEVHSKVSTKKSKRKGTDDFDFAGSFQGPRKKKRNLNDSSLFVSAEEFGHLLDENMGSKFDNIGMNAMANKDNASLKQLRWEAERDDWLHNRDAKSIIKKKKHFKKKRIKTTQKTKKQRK
UniProt Q8N2Z9: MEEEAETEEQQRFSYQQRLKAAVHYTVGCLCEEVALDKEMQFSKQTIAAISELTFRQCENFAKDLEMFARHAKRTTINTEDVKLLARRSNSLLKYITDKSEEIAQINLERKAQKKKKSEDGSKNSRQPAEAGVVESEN
UniProt O60563, whole entry: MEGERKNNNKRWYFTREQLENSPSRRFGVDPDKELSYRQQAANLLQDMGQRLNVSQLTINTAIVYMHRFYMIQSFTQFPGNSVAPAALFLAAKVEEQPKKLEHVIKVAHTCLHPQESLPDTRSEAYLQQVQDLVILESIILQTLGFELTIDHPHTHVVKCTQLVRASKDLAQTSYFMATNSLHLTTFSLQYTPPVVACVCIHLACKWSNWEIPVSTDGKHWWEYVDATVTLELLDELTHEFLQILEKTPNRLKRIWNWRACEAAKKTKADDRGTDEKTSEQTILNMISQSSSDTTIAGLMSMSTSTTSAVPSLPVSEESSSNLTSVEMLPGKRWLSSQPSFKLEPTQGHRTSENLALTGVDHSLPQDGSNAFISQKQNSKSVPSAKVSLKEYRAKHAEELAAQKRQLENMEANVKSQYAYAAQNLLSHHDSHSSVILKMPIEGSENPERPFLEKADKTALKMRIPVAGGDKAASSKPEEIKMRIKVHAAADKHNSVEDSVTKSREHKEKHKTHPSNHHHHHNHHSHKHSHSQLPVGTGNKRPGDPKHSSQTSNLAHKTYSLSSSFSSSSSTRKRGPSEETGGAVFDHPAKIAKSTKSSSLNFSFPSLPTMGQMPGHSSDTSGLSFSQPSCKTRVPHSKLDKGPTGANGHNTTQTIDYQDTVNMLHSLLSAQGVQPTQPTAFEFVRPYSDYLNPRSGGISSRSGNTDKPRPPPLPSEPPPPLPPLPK
UniProt Q8N163, whole entry: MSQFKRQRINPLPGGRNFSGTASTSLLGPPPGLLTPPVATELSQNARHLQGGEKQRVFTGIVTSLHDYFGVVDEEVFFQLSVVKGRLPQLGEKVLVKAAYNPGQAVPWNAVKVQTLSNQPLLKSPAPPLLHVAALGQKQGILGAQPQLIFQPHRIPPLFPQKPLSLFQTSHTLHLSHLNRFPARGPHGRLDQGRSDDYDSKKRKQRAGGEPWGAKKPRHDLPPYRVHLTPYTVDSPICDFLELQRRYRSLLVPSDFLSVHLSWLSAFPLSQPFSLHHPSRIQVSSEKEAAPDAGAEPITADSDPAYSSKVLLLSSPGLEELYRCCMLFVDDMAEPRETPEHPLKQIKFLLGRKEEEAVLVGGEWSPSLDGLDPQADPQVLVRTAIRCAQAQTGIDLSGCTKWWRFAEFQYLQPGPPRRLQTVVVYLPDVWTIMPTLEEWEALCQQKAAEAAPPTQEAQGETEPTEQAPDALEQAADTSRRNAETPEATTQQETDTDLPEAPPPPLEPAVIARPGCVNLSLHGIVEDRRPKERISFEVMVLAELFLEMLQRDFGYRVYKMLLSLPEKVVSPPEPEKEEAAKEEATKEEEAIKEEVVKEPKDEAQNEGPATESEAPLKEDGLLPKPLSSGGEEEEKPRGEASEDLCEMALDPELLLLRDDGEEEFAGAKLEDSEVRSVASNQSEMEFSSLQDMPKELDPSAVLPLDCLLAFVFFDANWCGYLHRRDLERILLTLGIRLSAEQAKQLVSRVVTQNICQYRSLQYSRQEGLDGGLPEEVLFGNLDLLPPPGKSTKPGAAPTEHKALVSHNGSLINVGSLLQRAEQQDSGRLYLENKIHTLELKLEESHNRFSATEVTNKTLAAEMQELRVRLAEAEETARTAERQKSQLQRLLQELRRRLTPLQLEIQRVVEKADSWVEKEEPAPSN
UniProt P45973, whole entry: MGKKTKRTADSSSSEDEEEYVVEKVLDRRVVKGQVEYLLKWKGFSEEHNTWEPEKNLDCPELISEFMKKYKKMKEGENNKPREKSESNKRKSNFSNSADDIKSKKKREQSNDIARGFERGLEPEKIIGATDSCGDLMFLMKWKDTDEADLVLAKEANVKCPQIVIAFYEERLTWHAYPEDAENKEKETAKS
UniProt Q9Y3E7, whole entry: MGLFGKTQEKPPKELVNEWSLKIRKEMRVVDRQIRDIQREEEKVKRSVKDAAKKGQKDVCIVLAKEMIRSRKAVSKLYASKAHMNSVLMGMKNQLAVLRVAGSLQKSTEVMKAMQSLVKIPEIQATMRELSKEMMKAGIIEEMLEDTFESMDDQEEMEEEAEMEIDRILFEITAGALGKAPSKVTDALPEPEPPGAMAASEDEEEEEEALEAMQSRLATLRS

Compound: Nc1nc2c(ncn2[C@@H]2O[C@H](COP(=O)(O)OP(=O)(O)OP(=O)(O)O)[C@@H](O)[C@H]2O)c(=O)[nH]1
Assay: dose-dependent thermal stabilisation call (2D-TPP, DLPTP, 10% FDR) (binary (1 = stabilised)); higher = stabilised by the compound
Details: system: Jurkat gel-filtered lysate; concentration range 1-500 µM

Target	dose-dependent thermal stabilisation call
CHTF8 (UniProt P0CG13)	inactive: 0
CPSF6 (UniProt Q16630)	active: 1
CLSPN (UniProt Q9HAW4)	inactive: 0
CD48 (UniProt P09326)	inactive: 0
CCDC58 (UniProt Q4VC31)	inactive: 0
CHID1 (UniProt Q9BWS9)	inactive: 0
CKAP2 (UniProt Q8WWK9)	inactive: 0
CDK5RAP3 (UniProt Q96JB5)	inactive: 0
CHM (UniProt P24386)	inactive: 0
CASP8 (UniProt Q14790)	inactive: 0
CLIC4 (UniProt Q9Y696)	inactive: 0
CLTB (UniProt P09497)	inactive: 0
CHEK2 (UniProt O96017)	inactive: 0
COPS2 (UniProt P61201)	inactive: 0
CDYL (UniProt Q9Y232)	inactive: 0
CDK5 (UniProt Q00535)	active: 1
COMMD4 (UniProt Q9H0A8)	inactive: 0
CLASP2 (UniProt O75122)	inactive: 0
CNPY2 (UniProt Q9Y2B0)	inactive: 0

Target	dose-dependent thermal stabilisation call
CEBPZ (UniProt Q03701)	inactive: 0
CNTRL (UniProt Q7Z7A1)	inactive: 0
CIT (UniProt O14578)	inactive: 0
CD2AP (UniProt Q9Y5K6)	inactive: 0
CDC42 (UniProt P60953)	active: 1
CENPK (UniProt Q9BS16)	inactive: 0
CENPS (UniProt Q8N2Z9)	inactive: 0
CASP7 (UniProt P55210)	inactive: 0
CCNT1 (UniProt O60563)	inactive: 0
CCDC174 (UniProt Q6PII3)	inactive: 0
COMMD6 (UniProt Q7Z4G1)	inactive: 0
COA6 (UniProt Q5JTJ3)	inactive: 0
CASTOR2 (UniProt A6NHX0)	inactive: 0
CCAR1 (UniProt Q8IX12)	inactive: 0
CCAR2 (UniProt Q8N163)	inactive: 0
CBX5 (UniProt P45973)	inactive: 0
CHMP3 (UniProt Q9Y3E7)	inactive: 0
CCT7 (UniProt Q99832)	inactive: 0

Some of the entries so far, with bars between the fields:
Target | dose-dependent thermal stabilisation call
CENPS (UniProt Q8N2Z9) | inactive: 0
COA6 (UniProt Q5JTJ3) | inactive: 0
